The source of these data is PMC8500422.

One test addresses T1, EGFP-fused BROMI (human) (UniProt Q96NH3).
T1 sequence: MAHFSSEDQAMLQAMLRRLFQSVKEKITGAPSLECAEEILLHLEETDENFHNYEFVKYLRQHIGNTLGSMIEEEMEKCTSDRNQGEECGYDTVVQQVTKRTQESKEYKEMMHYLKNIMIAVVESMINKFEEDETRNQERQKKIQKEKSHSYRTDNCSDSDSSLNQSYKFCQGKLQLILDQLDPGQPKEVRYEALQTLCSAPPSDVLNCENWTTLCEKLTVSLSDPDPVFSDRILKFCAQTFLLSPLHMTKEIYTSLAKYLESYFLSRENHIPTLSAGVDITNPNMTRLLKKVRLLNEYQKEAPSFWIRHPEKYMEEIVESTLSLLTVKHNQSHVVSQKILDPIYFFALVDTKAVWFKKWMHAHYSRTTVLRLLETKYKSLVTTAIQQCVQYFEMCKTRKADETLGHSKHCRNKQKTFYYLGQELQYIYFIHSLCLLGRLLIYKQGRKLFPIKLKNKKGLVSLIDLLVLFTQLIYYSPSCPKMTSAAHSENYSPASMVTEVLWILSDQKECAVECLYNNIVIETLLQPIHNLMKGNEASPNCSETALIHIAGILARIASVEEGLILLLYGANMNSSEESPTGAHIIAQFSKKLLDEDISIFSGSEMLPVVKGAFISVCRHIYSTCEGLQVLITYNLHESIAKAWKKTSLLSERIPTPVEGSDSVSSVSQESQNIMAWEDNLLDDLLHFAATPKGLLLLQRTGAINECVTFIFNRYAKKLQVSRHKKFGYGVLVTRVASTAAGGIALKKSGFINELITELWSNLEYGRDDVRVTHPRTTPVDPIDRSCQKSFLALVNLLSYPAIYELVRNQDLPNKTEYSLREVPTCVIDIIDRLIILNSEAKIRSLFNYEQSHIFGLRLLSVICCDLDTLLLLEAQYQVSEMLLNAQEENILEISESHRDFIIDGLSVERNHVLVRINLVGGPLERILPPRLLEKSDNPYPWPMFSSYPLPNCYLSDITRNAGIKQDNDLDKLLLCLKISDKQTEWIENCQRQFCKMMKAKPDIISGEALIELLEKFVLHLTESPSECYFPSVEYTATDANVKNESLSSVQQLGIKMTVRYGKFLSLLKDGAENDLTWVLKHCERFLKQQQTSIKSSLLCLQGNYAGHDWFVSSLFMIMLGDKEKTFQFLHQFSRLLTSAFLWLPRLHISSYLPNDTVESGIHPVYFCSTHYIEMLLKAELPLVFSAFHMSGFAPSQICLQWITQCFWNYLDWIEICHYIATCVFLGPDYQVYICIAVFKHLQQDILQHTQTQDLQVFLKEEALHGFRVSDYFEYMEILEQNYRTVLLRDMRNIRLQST
The test can be described thus: co-IP; the beads of the VIP assay (EGFP-fused protein precipitated with GST-tagged anti-GFP Nb from HEK293T lysates) subjected to SDS-PAGE and immunoblotting with anti-mChe or anti-GFP antibody. In general terms: Immunoblotting shows a protein as a band on a membrane.

Test [1] concerns the target T2, EGFP-fused BROMI(1–1,101) (human) (UniProt Q96NH3).
T2 sequence: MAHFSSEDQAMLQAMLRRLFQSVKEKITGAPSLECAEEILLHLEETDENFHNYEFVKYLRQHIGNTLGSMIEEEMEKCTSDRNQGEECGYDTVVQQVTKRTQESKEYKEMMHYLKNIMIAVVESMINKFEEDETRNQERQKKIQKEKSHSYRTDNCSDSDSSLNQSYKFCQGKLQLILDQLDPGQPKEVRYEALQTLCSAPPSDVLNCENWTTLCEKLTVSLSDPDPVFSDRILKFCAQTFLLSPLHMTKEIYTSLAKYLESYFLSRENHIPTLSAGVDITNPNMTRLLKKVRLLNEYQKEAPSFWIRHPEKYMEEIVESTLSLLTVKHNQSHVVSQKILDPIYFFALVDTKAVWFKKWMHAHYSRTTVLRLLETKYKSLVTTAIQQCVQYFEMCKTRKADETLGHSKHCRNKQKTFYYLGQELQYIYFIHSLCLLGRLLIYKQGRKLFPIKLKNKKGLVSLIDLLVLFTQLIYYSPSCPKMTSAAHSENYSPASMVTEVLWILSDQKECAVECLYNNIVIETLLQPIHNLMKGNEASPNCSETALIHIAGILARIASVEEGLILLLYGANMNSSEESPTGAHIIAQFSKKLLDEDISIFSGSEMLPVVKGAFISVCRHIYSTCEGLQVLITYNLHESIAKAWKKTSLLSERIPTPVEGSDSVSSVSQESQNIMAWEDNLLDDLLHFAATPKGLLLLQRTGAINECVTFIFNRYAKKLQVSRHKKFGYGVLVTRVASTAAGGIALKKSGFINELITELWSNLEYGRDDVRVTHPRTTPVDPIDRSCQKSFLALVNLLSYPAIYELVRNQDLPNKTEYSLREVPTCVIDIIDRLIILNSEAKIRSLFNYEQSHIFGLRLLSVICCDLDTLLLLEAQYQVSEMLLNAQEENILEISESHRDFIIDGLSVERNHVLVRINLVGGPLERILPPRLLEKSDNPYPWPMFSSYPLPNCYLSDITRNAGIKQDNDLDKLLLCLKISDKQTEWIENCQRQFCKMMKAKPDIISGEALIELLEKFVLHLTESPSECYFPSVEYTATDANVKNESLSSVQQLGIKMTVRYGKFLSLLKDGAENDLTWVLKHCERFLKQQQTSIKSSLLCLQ
The test is described as above.

These are yes or no findings as the source states them, for the method shown. In cells and extracts the contact can be indirect. Some entries that bind do so weakly or less than the wild type. Tags and fused reporters may be left off the sequences shown.

On to CCRK-mChe (from UniProt Q8IZL9-1 1-346), for which the values for the binding entry (with EGFP-fused BROMI (human); in test [1]) were “binds” and “no binding”, respectively.
